Data as given in PMC3568127.
Results are given in words; binding and its absence hold for the method and conditions named. Binding calls can cover weak binding; strength is not graded here. Tags and fused reporters may be left off the sequences shown.

By UniProt entry, the sequences of proteins in these tests, tags left out. Where a name states a change or a piece, a line headed by the entry shows the natural chain unless it says otherwise.
UniProt O60462: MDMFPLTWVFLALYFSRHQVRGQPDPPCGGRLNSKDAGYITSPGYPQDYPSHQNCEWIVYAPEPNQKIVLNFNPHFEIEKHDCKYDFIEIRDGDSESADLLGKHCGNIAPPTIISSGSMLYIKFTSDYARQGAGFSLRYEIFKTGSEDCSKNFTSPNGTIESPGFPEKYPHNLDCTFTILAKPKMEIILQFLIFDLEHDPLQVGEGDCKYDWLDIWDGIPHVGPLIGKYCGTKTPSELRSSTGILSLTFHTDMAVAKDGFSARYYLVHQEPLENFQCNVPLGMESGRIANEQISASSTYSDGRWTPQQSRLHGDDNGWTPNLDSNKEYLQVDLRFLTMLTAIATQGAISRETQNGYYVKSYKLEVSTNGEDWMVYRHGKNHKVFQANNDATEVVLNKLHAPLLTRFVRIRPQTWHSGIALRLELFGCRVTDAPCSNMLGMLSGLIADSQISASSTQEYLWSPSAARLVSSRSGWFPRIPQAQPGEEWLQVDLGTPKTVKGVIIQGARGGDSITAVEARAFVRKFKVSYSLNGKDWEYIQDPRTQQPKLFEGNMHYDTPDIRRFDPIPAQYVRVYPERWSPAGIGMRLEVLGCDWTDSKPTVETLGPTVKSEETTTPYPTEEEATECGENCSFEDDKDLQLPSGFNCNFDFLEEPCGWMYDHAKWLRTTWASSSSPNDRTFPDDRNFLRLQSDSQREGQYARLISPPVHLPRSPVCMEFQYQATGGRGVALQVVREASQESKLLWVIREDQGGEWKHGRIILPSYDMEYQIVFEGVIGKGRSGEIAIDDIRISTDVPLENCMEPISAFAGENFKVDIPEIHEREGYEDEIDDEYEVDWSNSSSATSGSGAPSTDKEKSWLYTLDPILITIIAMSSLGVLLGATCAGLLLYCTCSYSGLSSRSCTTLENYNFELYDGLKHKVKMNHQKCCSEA

Molecular target: NRP2 b1 domain, His6-tag removed (UniProt O60462)
Assay: SEC; preparative HiLoad 16/60 Superdex 75; 0.6 mM VEGF-A165-HBD with 0.06 mM NRP b1 (tenfold excess); 50 mM Tris pH 7.9, 100 mM NaCl; 30 minutes at room temperature; fractions of the single peak analysed by SDS-PAGE; both purified

- binding: binds
Binder: PCGPCSERRKHLFVQDPQTCKCSCKNTDSRCKARQLELNERTCRCDKPRR (domain or fragment) [VEGF-A165-HBD with the His6-tag removed]
